Screening data, single-dose tests

Protein sequences, listed by entry. Tags and fused reporters are not part of them. Residues count along the entry.
UniProt Q4DA54, 1-478: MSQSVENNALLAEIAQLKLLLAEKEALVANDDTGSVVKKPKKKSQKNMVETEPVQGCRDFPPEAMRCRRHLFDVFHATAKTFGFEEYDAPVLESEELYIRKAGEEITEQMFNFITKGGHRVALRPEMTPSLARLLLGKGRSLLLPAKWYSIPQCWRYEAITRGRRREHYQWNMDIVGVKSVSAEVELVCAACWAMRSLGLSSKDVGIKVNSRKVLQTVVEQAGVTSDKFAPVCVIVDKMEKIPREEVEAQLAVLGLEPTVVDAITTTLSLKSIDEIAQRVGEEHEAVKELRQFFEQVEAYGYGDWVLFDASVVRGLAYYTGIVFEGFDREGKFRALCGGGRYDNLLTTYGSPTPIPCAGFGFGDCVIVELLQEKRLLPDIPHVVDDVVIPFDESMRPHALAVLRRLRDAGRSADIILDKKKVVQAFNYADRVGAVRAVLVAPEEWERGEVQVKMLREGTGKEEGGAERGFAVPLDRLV
UniProt P9WNZ1, whole entry: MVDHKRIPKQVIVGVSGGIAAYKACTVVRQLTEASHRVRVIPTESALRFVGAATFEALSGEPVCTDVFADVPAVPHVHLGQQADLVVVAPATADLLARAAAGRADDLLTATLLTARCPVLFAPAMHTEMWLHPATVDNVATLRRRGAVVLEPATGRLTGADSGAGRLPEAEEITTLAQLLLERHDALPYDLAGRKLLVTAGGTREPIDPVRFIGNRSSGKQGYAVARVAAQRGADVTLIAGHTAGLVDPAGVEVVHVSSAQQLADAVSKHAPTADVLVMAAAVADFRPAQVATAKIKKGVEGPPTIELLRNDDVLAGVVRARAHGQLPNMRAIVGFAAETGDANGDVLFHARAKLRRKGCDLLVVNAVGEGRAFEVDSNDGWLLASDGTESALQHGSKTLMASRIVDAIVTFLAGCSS

Source: ChEMBL document CHEMBL3988442, “University of Dundee, Small-Polar-MMV Screening Library” (2021).

Toxoplasma: 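Assay of Toxoplasma gondii numbers, read through their beta-galactosidase reporter with a colour substrate. Compounds at 10 µM. Higher reads as fewer parasites (inferred from which compounds were picked for retests). Size under these conditions: about 67,000 compounds, about 260 of them at 50% or above in at least one test.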
TcHisRS: 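Enzyme assay of histidyl-tRNA synthetase; the read-out is not stated. Target: Histidine-tRNA ligase, Trypanosoma cruzi CL Brener (UniProt Q4DA54). Tested at 30 µM. The record gives no direction; compounds that gave an IC50 in retests scored well above the rest, so higher reads as stronger inhibition. Of about 69,000 compounds tested this way, about 31 (0.045%) reached 50% or more in at least one test.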
CoaBC: 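Coenzyme A biosynthesis protein CoaBC, Mycobacterium tuberculosis (UniProt P9WNZ1). Enzyme assay of CoaBC with a phosphate dye (Biomol Green) read at 650 nm. Concentration: 30 µM. Higher reads as stronger inhibition, judged from the few compounds that gave an IC50. Most strong results did not repeat in a second test. Of about 67,000 compounds tested this way, about 40 (0.06%) reached 50% or more in at least one test.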
Leishmania in macrophages: 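Cell assay of Leishmania donovani living inside macrophages; the read-out is not stated. Concentration: 30 µM. Direction is inferred from retests: higher values go with stronger inhibition. Of about 69,000 compounds tested this way, about 1,000 (1.5%) reached 50% or more in at least one test.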

Values are the deposited “Percent Effect”, in %. The record does not define 0% and 100%; most values in the screen are far below 50% and negative numbers occur (in some assays of this library far below -100). This is an unselected part of the compounds tested. Two or more numbers in one place are separate tests of the same structure; such repeats can differ widely. A dash means the value is not listed here; it may have been measured.

| # | SMILES | Toxoplasma | TcHisRS | CoaBC | Leishmania in macrophages |
|---|---|---|---|---|---|
| 1 | `CC(SCc1cc(Br)cc2cccnc12)C(N)=O` (centres unmarked) | 14.02% | 3.59% | -0.7453% | 9.644% |
| 2 | `Cl.Cn1cc(CNC2CCC(O)CC2)c(-c2cc3ccccc3o2)n1` (centres unmarked) | -25.9% | - | - | 1.129% |
| 3 | `Cc1ncc(C(=O)N2C[C@H]3CC[C@@H]2CN(S(=O)(=O)N(C)C)C3)c(C)n1` | - | -0.4149% | 12.5% | - |
| 4 | `CN1CCCC1CNC(=O)CCCOc1cccc(F)c1` (centres unmarked) | 5.311% | 8.876% | -20.66% | 9.421% |
| 5 | `Cc1cc(S(=O)(=O)N2CCc3ccc(F)cc32)cc(C(=O)O)c1C` | -11.27% | -9.434% | -0.3911% | -6.904% |
| 6 | `CC(=O)c1cc(CN2CCCC23CCN(c2ccccn2)CC3)cs1` | -17.26% | 3.636% | 6.13% | 8.542% |
| 7 | `CC(C)N(C)Cc1noc2c1CN(C(=O)c1cnccn1)CC2` | 0.2989% | -22.99% | 4.713% | 17.77% |
| 8 | `Cn1c2c(c(=O)n1C)CN(C(=O)c1ccco1)CCC2` | 3.499% | 3.226% | -1.474% | -12.99% & 1.836% |
| 9 | `Cc1cc(CN(C)CC(c2cccs2)N2CCOCC2)on1` (centres unmarked) | -6.414% | 9.357% | 4.592% | 14.75% |
| 10 | `O=C(c1ccncc1Cl)N1CCN(Cc2ccco2)C(CCO)C1` (centres unmarked) | -5.294% | -1.02% | 3.62% | 18.18% |
| 11 | `NC(=O)CN1CCOCC(Cc2cccc(F)c2)C1` (centres unmarked) | -2.25% | 5.243% | 2.85% | 21.79% |
| 12 | `CN1CCO[C@@H]2CN(S(=O)(=O)c3ccc(F)cc3)CC[C@@H]2C1` | - | 3.743% | -7.5% | - |
| 13 | `COCc1nc(N(C)C)ncc1C(=O)Nc1ccn(C)n1` | 2.51% | 1.639% | -0.6729% | -3.1% |
| 14 | `CCOc1ccc2[nH]c3c(N(C)CC4OCCO4)ncnc3c2c1` | -8.88% | -8.808% | 3.385% | -13.93% |
| 15 | `CC(=O)N1CCN(CCCOc2ccccc2F)CC(C(N)=O)C1` (centres unmarked) | 7.63% | 0% | 2.843% | 5.439% |
| 16 | `O=C(C1CC1)N1CCCCCC1C1CCN(c2ncccn2)CC1` (centres unmarked) | 3.395% | 4.762% | -3.071% | 0.3218% |
| 17 | `O=C(O)C(F)(F)F.[H][C@@]12C[C@@H](OCc3ccccc3)CN1CCN(C(=O)c1cnccn1)C2` | 5.003% | - | - | -5.104% |
| 18 | `CC(C)C1CCCN1CCCc1nc(-c2cccs2)no1` (centres unmarked) | 4.797% | 4.942% | -3.609% | 20.32% |
| 19 | `Cc1ccccc1CC(C)(C)NC(=O)COc1cccc(C(N)=O)c1` | -1.299% | -0.4926% | 3.165% | -26.69% |
| 20 | `c1coc(CN2Cc3nccn3CC(Cn3cncn3)C2)c1` (centres unmarked) | 17.99% | -5.785% | -9.247% | -3.339% |
| 21 | `c1cnnc(N2CCCC2CNCc2csc(-c3ccco3)n2)c1` (centres unmarked) | 33.8% | 15.38% | 6.464% | 37.3% |
| 22 | `O=C1OCCN1CC(=O)N1C[C@H]2CC[C@@H]1CN(Cc1cscn1)C2` | - | 0% | -4.598% | - |
| 23 | `COCCCNC(=O)CN1CCC(N2CCN(C)C2=O)CC1` | 3.218% | 2.857% | 3.412% | 18.21% |
| 24 | `CCn1cc(Cl)c(C(=O)NCCCO)n1` | -8.013% | 4.348% | -2.309% | -22.45% |
| 25 | `CN(Cc1ccccc1)c1cnn(CC2CCCCO2)c(=O)c1` (centres unmarked) | -20.38% | 4.464% | 4.654% | 12.72% |
| 26 | `Cc1nnc(N2CCCC3(CN(Cc4ccc(F)cc4)CCO3)C2)o1.O=C(O)C(F)(F)F` (centres unmarked) | -2.885% | - | - | 9.003% |
| 27 | `COCCCNC(=O)C1(NC(=O)c2ccc3[nH]ncc3c2)CCCC1` | 0.3578% | 7.937% | -1.446% | 14.18% |
| 28 | `Cc1ncsc1CN1CC(C)(C2CC2)CC1=O` (centres unmarked) | -9.337% | 4.819% | -1.733% | -1.864% |
| 29 | `Cc1ccc(C(=O)NCC2(O)CCOCC2)cc1F` | -2.276% | 4.926% | -3.205% | 35.01% |
| 30 | `Cc1nn(C)c2c(=O)n(CC(=O)NCc3ccccn3)ccc12` | 19.14% | 0.9901% | 4.964% | 2.656% |
| 31 | `O=C(O)C(F)(F)F.O=S(=O)(C1CC1)N1CCc2ncnc(N3CCCC3)c2CC1` | -5.475% | - | - | -10.52% |
| 32 | `Cc1nc(CNC(=O)NCC(O)c2ccc(F)c(F)c2)cs1` (centres unmarked) | -0.3231% | 0.3831% | 4.722% | 32.23% |
| 33 | `CN(C)C(=O)Cc1nc(CN2CCCC2Cn2cncn2)cs1` (centres unmarked) | -0.7379% | 7.843% | 4.878% | -5.43% |
| 34 | `O=c1[nH]ncc(NCCOc2ccc3c(c2)CCC3)c1Cl` | 5.936% | -1.657% | 7.589% | 53.95% |
| 35 | `Cc1cnn(CC2CCCN2CC(=O)Nc2nc(C)cs2)c1` (centres unmarked) | 0.7786% | 4.943% | 3.162% | 32.51% |
| 36 | `Cc1nn(C)c2c(=O)n(CC(=O)NCCC(C)C)ccc12` | -30.59% | 0% | -1.816% | 41.53% |
| 37 | `O=C(O)C(F)(F)F.O=S(=O)(C1CC1)N1Cc2[nH]nc(COCC3CC3)c2C1` | -1.996% | - | - | -12.94% |
| 38 | `Cc1cnn(CC2CN(Cc3ccc(-n4cccn4)cc3)CCO2)c1` (centres unmarked) | 1.931% | 2.857% | 0% | 8.391% |
| 39 | `O=C(O)[C@H]1C[C@H](C(=O)NCc2ccncc2)CN(CCC(F)(F)F)C1` | -15.09% | 4.762% | 5.765% | 2.829% |
| 40 | `CCc1ccccc1OC1CN(C(=O)c2sccc2N)C1` | 10.87% | 12.14% | 0.4132% | 23.15% |
| 41 | `COc1cccc(CNC(=O)CC2CSc3ncc(C)c(=O)n32)c1` (centres unmarked) | 0.3326% | 5.435% | 3.422% | 8.439% |
| 42 | `CC(C)N(C)[C@@H]1CCN(Cc2nccs2)[C@H]1Cc1ccncc1.O=C(O)C(F)(F)F.O=C(O)C(F)(F)F.O=C(O)C(F)(F)F` | -30.27% | - | - | 13.74% |
| 43 | `CN1CCCN(c2nc3c(cnn3C(C)(C)C)c(=O)[nH]2)CC1` | 1.617% | 4.865% | 1.818% | 14.03% |
| 44 | `O=C(C1=CCCC1)N1CCO[C@H]2[C@@H](OCC3CC3)CC[C@@H]21` | - | 0.5405% | 1.904% | - |
| 45 | `O=C(O)C(F)(F)F.O=C(O)C(F)(F)F.O=C(O)C(F)(F)F.c1cc(CN2CCCC23CCCN(Cc2ccoc2)C3)ccn1` (centres unmarked) | 23.69% | - | - | 15.28% & 29.83% |
| 46 | `CCc1nnc2n1CCN(C(=O)c1cc3cc(F)ccc3[nH]1)C2` | 3.706% | 3.053% | 2.41% | 29.37% |
| 47 | `Cc1ncsc1C(=O)N1CCN(Cc2ccccc2)CC1C` (centres unmarked) | 2.711% | 8.387% | -4.348% | 34.61% |

Once more, the final 4:

With O=C(C1=CCCC1)N1CCO[C@H]2[C@@H](OCC3CC3)CC[C@@H]21 the screen gave TcHisRS: 0.5405%; CoaBC: 1.904%.
With O=C(O)C(F)(F)F.O=C(O)C(F)(F)F.O=C(O)C(F)(F)F.c1cc(CN2CCCC23CCCN(Cc2ccoc2)C3)ccn1 (centres unmarked) the screen gave Toxoplasma: 23.69%; Leishmania in macrophages: 15.28% & 29.83%.
With CCc1nnc2n1CCN(C(=O)c1cc3cc(F)ccc3[nH]1)C2 the screen gave Toxoplasma: 3.706%; TcHisRS: 3.053%; CoaBC: 2.41%; Leishmania in macrophages: 29.37%.
With Cc1ncsc1C(=O)N1CCN(Cc2ccccc2)CC1C (centres unmarked) the screen gave Toxoplasma: 2.711%; TcHisRS: 8.387%; CoaBC: -4.348%; Leishmania in macrophages: 34.61%.